Literature values as cited in patent US20100021427A1, “Use of Antiviral Peptides For Treatment of Infections Caused by Drug-Resistant HIV” (Tianjin FusoGen Pharmaceuticals, Inc., priority 2008, published 2010).
At least one read-out could not be matched to a standard name with certainty.

System: HIV fusion
Details: relative to T20; cited from earlier work

Q: Which “IC50 lower than T20” value does the source give for “X-SWETWEREIENYTKQIYKILEESQEQQDRNEKDLLE-Z (X and Z terminal groups) [anti-viral peptide of co-owned CN01130985.7, derived from residues 117-151 of the C-terminal of HIV-1 (E subtype) gp41]” here?
A: Its value is 20 time.
